Data published in PMC8968030.
Results are given in words; binding and its absence hold for the method and conditions named. In cells and extracts the contact can be indirect. Here binding means that the protein was enriched with, or labelled near, the bait; the list need not be complete.

Protein sequences, listed by entry. Tags and fused reporters are not part of them.
UniProt Q8CIG8: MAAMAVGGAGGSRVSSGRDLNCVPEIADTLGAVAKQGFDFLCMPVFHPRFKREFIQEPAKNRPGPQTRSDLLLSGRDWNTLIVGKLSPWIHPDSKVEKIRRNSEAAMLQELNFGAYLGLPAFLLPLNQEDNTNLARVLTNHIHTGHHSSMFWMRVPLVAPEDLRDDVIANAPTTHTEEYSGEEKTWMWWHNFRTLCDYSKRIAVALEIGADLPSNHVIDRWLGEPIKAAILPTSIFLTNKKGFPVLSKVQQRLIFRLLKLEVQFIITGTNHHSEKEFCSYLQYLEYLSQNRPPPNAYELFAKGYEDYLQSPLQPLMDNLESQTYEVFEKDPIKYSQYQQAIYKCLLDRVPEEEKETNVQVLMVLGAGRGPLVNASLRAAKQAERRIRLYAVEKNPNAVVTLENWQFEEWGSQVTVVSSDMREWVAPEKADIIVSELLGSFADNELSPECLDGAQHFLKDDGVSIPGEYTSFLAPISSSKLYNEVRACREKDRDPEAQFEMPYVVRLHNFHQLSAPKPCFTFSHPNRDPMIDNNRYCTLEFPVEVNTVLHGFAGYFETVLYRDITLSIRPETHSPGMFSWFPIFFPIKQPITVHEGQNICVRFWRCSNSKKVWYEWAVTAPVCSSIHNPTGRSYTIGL
UniProt Q9WV92: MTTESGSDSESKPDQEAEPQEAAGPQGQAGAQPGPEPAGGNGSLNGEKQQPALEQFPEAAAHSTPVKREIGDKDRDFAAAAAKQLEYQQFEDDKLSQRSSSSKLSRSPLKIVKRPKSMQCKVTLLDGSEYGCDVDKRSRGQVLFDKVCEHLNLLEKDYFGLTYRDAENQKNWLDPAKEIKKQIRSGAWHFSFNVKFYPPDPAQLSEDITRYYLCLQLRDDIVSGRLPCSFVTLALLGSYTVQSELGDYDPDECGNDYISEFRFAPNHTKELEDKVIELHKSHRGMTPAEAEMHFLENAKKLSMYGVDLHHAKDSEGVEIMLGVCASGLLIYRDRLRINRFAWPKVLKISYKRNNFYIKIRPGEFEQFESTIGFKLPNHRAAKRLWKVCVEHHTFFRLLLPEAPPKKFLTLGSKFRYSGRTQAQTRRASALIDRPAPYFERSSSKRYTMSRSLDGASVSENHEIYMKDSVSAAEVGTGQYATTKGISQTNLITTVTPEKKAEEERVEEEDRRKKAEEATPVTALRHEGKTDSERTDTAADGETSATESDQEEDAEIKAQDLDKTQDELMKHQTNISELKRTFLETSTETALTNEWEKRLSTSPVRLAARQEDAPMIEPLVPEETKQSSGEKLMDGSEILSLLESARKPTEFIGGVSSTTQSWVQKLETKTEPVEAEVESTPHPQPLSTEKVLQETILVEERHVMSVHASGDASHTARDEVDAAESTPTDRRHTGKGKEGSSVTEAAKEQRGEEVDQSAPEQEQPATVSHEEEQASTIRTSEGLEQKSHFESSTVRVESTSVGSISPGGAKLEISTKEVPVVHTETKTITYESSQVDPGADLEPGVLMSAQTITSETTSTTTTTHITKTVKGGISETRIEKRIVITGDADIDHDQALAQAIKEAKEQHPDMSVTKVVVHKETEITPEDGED

B1: TNF receptor-associated factor 4 (protein, UniProt Q61382 1-470)
chain: MPGFDYKFLEKPKRRLLCPLCGKPMREPVQVSTCGHRFCDTCLQEFLSEGVFKCPEDQLPLDYAKIYPDPELEVQVLGLAIRCIHSEEGCRWSGPLRHLQGHLNTCSFNVVPCPNRCPAKLSRRDLPAHLQHDCPKRRLKCEFCGCDFSGEAYESHEGVCPQESVYCENKCGARMMRRLLAQHATSECPKRTQPCAYCTKEFVYDTIQSHQYQCPRLPVPCPNQCGVGTVAREDLPTHLKDSCSTAFVLCPFKESGCKHRCPKLAMGRHVEESVKPHLAMMCALVSRQRQELQELRRELEELSIGSDGVLIWKIGSYGRRLQEAKAKPNLECFSPAFYTHKYGYKLQVSAFLNGNGSGEGTHLSIYIRVLPGAFDNLLEWPFARRVTFSLLDQSDPGLAKPQHVTETFHPDPNWKNFQKPGTWRGSLDESSLGFGYPKFISHQDIRKRNYVRDDAVFIRASVELPRKILS
B2: zinc-finger protein 326 (protein, UniProt O88291 1-580)
chain: MDFEDDYVHSTCRGAYQDFNGMDRDYGPGSYGGLDRDYGHGSYGGQRSMDSYLNQSYGMDNHSGGGGGSRFGPYESYDSRSSLGGRDLYRSGYGFNEPEQTRFGGSYGGRFESSYRNSLDSFGGRNQGGSSWEAPYSRSKLRPGFMEDRGRENYSSYSSFSSPHMKPAPVGSRGRGTPAYPESTFGSRSYDAFGGPSTGRGRGRGHMGDFGSFHRPGIIVDYQNKPANVTIATARGIKRKMMQIFIKPGGAFIKKPKLAKPMDKMNLSKSPTKTDPKNEEEEKRRIEARREKQRRRREKNSEKYGDGYRMAFTCSFCKFRTFEEKDIELHLESSSHQETLDHIQKQTKFDKVVMEFLHECMVNKFKKASIRKQQTLNHPEAYKIIEKDIMEGVTADDHMMKVETVHCSACSVYIPALHSSVQLHLKSPDHSKGKQAYKEQIKRESVLTATSILNNPIVKARYERFVKGENPFEIQDHPQDQQIEGDEEDEEKIDEPIEEEEEEEEEEEEEGEEAGSVEEEGDVEGEEGTAEAAAAGEADAVGEAEGAGEAEEAEEEEEEEGTQEFAAQACATEQCEHRQM

biological target: protein arginine methyl transferase PRMT5 (mouse (endogenous in primary mouse OPCs)) (UniProt Q8CIG8); assay: affinity purification with mass spectrometry; IP of endogenous PRMT5 with PRMT5 antibody (Abcam ab109451) against normal IgG control, protein-A beads, overnight at 4°C, from NP-40 lysates (50 mM HEPES pH 7.4, 150 mM NaCl, 1% NP-40) of primary mouse oligodendrocyte progenitors kept with mitogens or without mitogens with T3 for 48 h; in-gel tryptic digestion and LC-MS/MS; hits: at least two unique peptides in the PRMT5 IP and none in IgG

For “Band 4.1-like protein 3 (from UniProt Q9WV92 1-929)”, which binding is on record?
The binding was “binds”.

How did the binding turn out when B1 was run?
The binding was “binds”.

For B2, which binding is on record?
The binding was “binds”.
